Data as given in patent US10703798B2, “Methods of cancer therapy by inhibiting fusion polypeptides comprising fibroblast growth factor receptor 2 (FGFR2) and vinculin (VCL)” (DEBIOPHARM INTERNATIONAL SA, priority 2014, dated 2020).
For at least one compound, name, drawing or mass did not settle the structure.

Test system: Rat2 parental cells
Test: Cell proliferation assay using FACS, parental cells
Type: cell-based, rat
Experimental: Stable Rat2 cell pools stably expressing FGFR2-CCDC147 or FGFR2-VCL fusions, respectively, were generated using pExoIN2-based expression plasmids ExoIN2-FGFR2_CCDC147 and pExoIN2-FGFR2_VCL. pExoIN2 was obtained from Trenzyme, (Germany). The latter expression plasmids were introduced into Rat2 cells by electroporation (LONZA Nucleofector II Device/program [X-005], Solution R). 24 h post-transduction, cells were subjected to 1.5 µg/mL puromycin to derive stable expressor cell pools. The FGFR2-CCDC147 sequence used in this example was composed of SEQ ID NO: 16 for the FGFR2 part (nucleic acid 1 to nucleic acid 2574) and SEQ ID NO: 20 for the CCDC147 part (nucleic acid 156 to nucleic acid 3313). The FGFR2-VCL sequence used was composed of SEQ ID NO: 16 for the FGFR2 part (nucleic acid 1 to nucleic acid 2574) and SEQ ID NO: 18 for the VCL part (nucleic acid 2117 to nucleic acid 5482).

## Cc1ccc(C(=O)Nc2ccc(CN3CCN(C)CC3)c(C(F)(F)F)c2)cc1C#Cc1cnc2cccnn12 [Ponatinib, reference compound]
  inhibition of cell proliferation (in words): inhibited cell proliferation of parental cells
